PubChem BioAssay AID1259424 | University of Nebraska Medical Center | 2018
In all, the deposit lists about 14,000 reagents; below is a random part of them. 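Higher correlation or smaller distance means closer resemblance to KSR1 loss; control wells, including KSR1 knockdowns, recur on many plates.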 A reagent listed more than once was tested more than once; the source does not tell the runs apart. Not all columns of the deposit are shown. Not stated in the record: the time to read-out.

Purpose: 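Rank knockdowns across the genome by resemblance to the KSR1 depletion profile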 (primary screen)
Cell system: human HCT116 colon cancer cells
Reagents: siRNA pool against human genes, 50 nM
Detection: 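Log2 levels of six mRNAs (branched-DNA multiplex), adjusted by two reference genes and the non-targeting median, then scored against the average KSR1 knockdown pattern as Pearson r and euclidean distance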
Direction: mean correlation with KSR1 profile: higher = expression change more like KSR1 knockdown

| mean correlation with KSR1 profile | target gene |
| --- | --- |
| 0.149 | THRB (GeneID 7068) |
| -0.859 | ZNF219 (GeneID 51222) |
| -0.128 | MEPE (GeneID 56955) |
| -0.075 | CHAD (GeneID 1101) |
| 0.522 | SYNJ1 (GeneID 8867) |
| -0.543 | ZNF592 (GeneID 9640) |
| 0.526 | ARMC1 (GeneID 55156) |
| 0.513 | MGST1 (GeneID 4257) |
| -0.836 | ACOT11 (GeneID 26027) |
| -0.113 | SERPIND1 (GeneID 3053) |
| -0.13 | FAABTP (GeneID 55266) |
| 0.126 | GJD2 (GeneID 57369) |
| 0.587 | BTAF1 (GeneID 9044) |
| 0.569 | CDH18 (GeneID 1016) |
| 0.367 | WNT4 (GeneID 54361) |
| 0.644 | ZNF224 (GeneID 7767) |
| 0.491 | ZNF224 (GeneID 7767) |
| 0.0586 | INPP5F (GeneID 22876) |
| 0.21 | UBE2W (GeneID 55284) |
| 0.12 | SKIC2 (GeneID 6499) |

In a second layout: results already given.
{"target gene": "ZNF224 (GeneID 7767)", "mean correlation with KSR1 profile": 0.644}
{"target gene": "ZNF224 (GeneID 7767)", "mean correlation with KSR1 profile": 0.491}
{"target gene": "INPP5F (GeneID 22876)", "mean correlation with KSR1 profile": 0.0586}
